The source of these data is article PMC13043047.

These are yes or no findings as the source states them, for the method shown. Binding seen in cells or lysates may run through a third protein. For part of these data: A result given as binding can be weak or reduced; the word gives no strength. Sequences can lack the tags named with a protein.

Assay [1] addresses GFP-tagged rotavirus non-structural protein NSP4 (rotavirus, strain not stated). Nature of the assay: co-IP; HEK293 cells transfected, NP40 lysis buffer; anti-GFP antibody or mouse IgG1 isotype control on Dynabeads protein G, overnight at 4°C; immunoblot with anti-GFP and anti-FLAG or anti-SPCS1. (In general: Immunoblotting shows a protein as a band on a membrane.)
The target in assay [2] is GFP-tagged DS1-VP7 (human rotavirus DS1 strain (G2P[4])). Described as above.

B1: C-terminally Flag-tagged SPCS1 (protein, UniProt Q9Y6A9 1-169)
chain: MARGGDTGCTGPSETSASGAAAIALPGLEGPATDAQCQTLPLTVLKSRSPSPRSLPPALSCPPPQPAMLEHLSSLPTQMDYKGQKLAEQMFQGIILFSAIVGFIYGYVAEQFGWTVYIVMAGFAFSCLLTLPPWPIYRRHPLKWLPVQESSTDDKKPGERKIKRHAKNN
As to B1, the binding entry in assay [1] was “no binding”; in assay [2], “binds”.

B2: signal peptidase complex subunit 1 (protein, UniProt Q9Y6A9 1-169)
chain: B1 chain
As for B2, the binding result in assay [2] is listed as “binds”.
